Source: PubChem BioAssay AID206 (DTP/NCI, 2004)
The list is a part of this screen's results and no random one: it gathers tests that were run many times, whatever their T/C, doses with no T/C, and many T/C values between a quarter and a half above the control. Other doses and runs of a compound stand elsewhere. T/C: endpoint of the treated group in % of that of the vehicle group. Schedule codes are those of the source, read here as Q, the interval in days (D) or hours (H), X, the number of doses. Some T/C values are followed by the survivors on the day toxicity was checked, most often the fifth; without a count, all were alive then. Some entries give survivors of the animals treated and no T/C: the source holds a T/C of zero for them, seemingly a mark for toxic or unscored doses. Survivors were counted at the toxicity check, usually on the fifth day, unless a day is given; later deaths do not show. Some entries were tested several times; their values stand side by side, smallest first. Starred links: 1 amine or outer side, 2 acyl side, 3 side chain; linkers in the order of their positions; H or OH if unused. Positions of bridges follow the written chain, without caps; N, C: chain ends. Non-standard residues stand in square brackets, D forms with d. Residues, ends and D or L forms follow the SMILES beside them. Chains are numbered I, II in the order given. Actinocin(9to1) = Cc1c2oc3c(C)ccc(C(=O)[*:1])c3nc-2c(C(=O)[*:2])c(N)c1=O; aThr = C[C@H](O)[C@H](N)C(=O)O; NMeV = CN[C@H](C(=O)O)C(C)C; Sar = CNCC(=O)O

System: nude mice, HT29 intrarenal xenograft, tumor weight T/C
Assay: NCI In Vivo Anticancer Drug Screen. Data for tumor model HT29;CX-1 Human Adenocarcinoma (MER+) (intrarenal inoculation) in NU/NU Swiss (nude) mice
Details: T/C endpoint: mean tumor weight change, higher T/C = larger tumour
Protocol: The antitumor activity of compounds was measured in mice bearing transplantable tumors. Survival or tumor size were measured and the results are expressed as the measurement made in the treated group (T) divided by the measurement made in the vehicle treated control group (C). The tumor model used in this assay is HT29;CX-1 Human Adenocarcinoma (MER+) (intrarenal inoculation) in NU/NU Swiss (nude) mice

[1] = dose: 150.0 mg/kg/injection, schedule: Q04DX004 (sc), vehicle: Klucel (hydroxypropylcellulose) (HPC)

**Q.** Which T/C (dose: 1.0 mg/kg/injection, schedule: Q04DX004 (sc), vehicle: saline, evaluated on day 15) does the source give for `C/C=C1\C[C@@H]2C(OC)Nc3cc(O)c(OC)cc3C(=O)N2C1` (stereo partly specified) here?
**A.** 128 % of control

**Q.** For `CC(Cc1ccc(O)c(O)c1)C(C)Cc1ccc(O)c(O)c1` (stereo unspecified), which T/C (dose: 1200.0 mg/kg/injection, schedule: Q04DX004 (sc), vehicle: saline + alcohol, evaluated on day 15) is on record?
**A.** 142 % of control

**Q.** For `Brc1c(NC2=NCCN2)ccc2nccnc12`, which survivor count (dose: 800.0 mg/kg/injection, schedule: Q04DX004 (sc), vehicle: saline) is on record?
**A.** 1 of 6 on day 15

**Q.** What about the survivor count (dose: 1600.0 mg/kg/injection, schedule: Q04DX004 (sc), vehicle: saline) of the same compound?
**A.** 0 of 6 on day 15

**Q.** With `CN=C(N)N/N=C(\c1ccccc1)c1ccc(Br)cc1` as the compound, how does the survivor count (dose: 100.0 mg/kg/injection, schedule: Q04DX004 (sc), vehicle: saline with Tween-80) read?
**A.** 0 of 6 on day 15, 1 of 5 on day 15, 1 of 4 on day 15

**Q.** `Nc1nc(-c2cccc3ccccc23)cc2ccccc12` was tested. Which T/C (dose: 100.0 mg/kg/injection, schedule: Q04DX004 (sc), vehicle: saline with Tween-80, evaluated on day 15) did it give?
**A.** 137 % of control

**Q.** And the survivor count (dose: 1600.0 mg/kg/injection, schedule: Q04DX004 (sc), vehicle: saline with Tween-80)?
**A.** 3 of 5 on day 15

**Q.** How did the survivor count (dose: 2400.0 mg/kg/injection, schedule: Q04DX004 (sc), vehicle: saline) turn out when `Nc1nc(=O)n(C2OC(CO)C(O)C2O)cc1F` (stereo unspecified) was run?
**A.** 0 of 5 on day 15

**Q.** Which results are given for `CN(CCN(C)C(=O)CCOS(C)(=O)=O)C(=O)CCOS(C)(=O)=O`?
**A.** survivor count (dose: 300.0 mg/kg/injection, schedule: Q04DX004 (sc), vehicle: saline): 0 of 6 on day 15; survivor count (dose: 600.0 mg/kg/injection, schedule: Q04DX004 (sc), vehicle: saline): 0 of 6 on day 15

**Q.** For `OC1CCCC2CCC[N-]C12.OC1CCCC2CCC[N-]C12.[Mn+2]` (stereo unspecified), which T/C (dose: 300.0 mg/kg/injection, schedule: Q04DX004 (sc), vehicle: Klucel (hydroxypropylcellulose) (HPC), evaluated on day 15) is on record?
**A.** 126 % of control

**Q.** What about the T/C (dose: 1200.0 mg/kg/injection, schedule: Q04DX004 (sc), vehicle: Klucel (hydroxypropylcellulose) (HPC), evaluated on day 15) of the same compound?
**A.** 134 % of control [5 of 6 alive on day 15]

**Q.** `CC1=C(/C=C/C(C)=C/C=C/C(C)=C/C=O)C(C)(C)CCC1` was tested. Which survivor count (dose: 1200.0 mg/kg/injection, schedule: Q04DX004 (sc), vehicle: saline with Tween-80) did it give?
**A.** 3 of 6 on day 15

**Q.** With `COc1ccc(C(=O)/C(Br)=C/C(=O)O)cc1` as the compound, how does the survivor count (dose: 100.0 mg/kg/injection, schedule: Q01DX010 (sc), vehicle: saline) read?
**A.** 1 of 3 on day 11

**Q.** With `Cc1c2oc3c(C)ccc(C(=O)N[C@@H]4C(=O)N[C@H](C(C)C)C(=O)N5CCC[C@H]5C(=O)N(C)CC(=O)N(C)[C@@H](C(C)C)C(=O)O[C@H]4C)c3nc-2c(C(=O)N[C@@H]2C(=O)N[C@H](C(C)C)C(=O)N3CCC[C@H]3C(=O)N(C)CC(=O)N(C)[C@@H](C(C)C)C(=O)O[C@H]2C)c(N)c1=O` (I: [aThr][dV]P[Sar][NMeV] / II: [aThr][dV]P[Sar][NMeV]; ester I:1-I:C, II:1-II:C; linker I:N-II:N via Actinocin(9to1)) as the compound, how does the survivor count (dose: 400.0 micrograms/kg/injection, schedule: Q01DX010 (sc), vehicle: saline) read?
**A.** 0 of 3 on day 11

**Q.** For `Cc1c2c(ccc3ccccc32)c[n+]2ccccc12`, which survivor count (dose: 25.0 mg/kg/injection, schedule: Q01DX010 (sc), vehicle: saline) is on record?
**A.** 0 of 3 on day 11

**Q.** And the survivor count (dose: 50.0 mg/kg/injection, schedule: Q01DX010 (sc), vehicle: saline)?
**A.** 0 of 3 on day 11

**Q.** `O=Cc1ccc(O)c(O)c1` was tested. Which survivor count (dose: 2400.0 mg/kg/injection, schedule: Q04DX004 (sc), vehicle: saline with Tween-80) did it give?
**A.** 3 of 6 on day 15

**Q.** `CCCCCCCC(=O)N/N=C(\CO)[C@]1(O)Cc2c(O)c3c(c(O)c2[C@@H](OC2CC(N)C(O)C(C)O2)C1)C(=O)c1c(OC)cccc1C3=O` (stereo partly specified) was tested. Which survivor count (dose: 125.0 mg/kg/injection, schedule: Q04DX004 (sc), vehicle: water) did it give?
**A.** 1 of 3 on day 15

**Q.** For `c1ccc2c(NCCCCCCCCNc3c4ccccc4nc4ccccc34)c3ccccc3nc2c1`, which survivor count (dose: 80.0 mg/kg/injection, schedule: Q01DX010 (sc), vehicle: Klucel (hydroxypropylcellulose) (HPC)) is on record?
**A.** 0 of 3 on day 11

**Q.** For `CC1(O)CC23CC(O)C4(O)C(CC(O)C4(C)C)C(C)(O)C2CCC1C3O` (stereo unspecified), which survivor count (dose: 2.0 mg/kg/injection, schedule: Q04DX004 (sc), vehicle: Klucel (hydroxypropylcellulose) (HPC)) is on record?
**A.** 0 of 6 on day 15

**Q.** Which results are given for `Nc1nc(=S)c2[nH]cnc2[nH]1`?
**A.** T/C (dose: 0.2 mg/kg/injection, schedule: Q01DX010 (sc), vehicle: Klucel (hydroxypropylcellulose) (HPC), evaluated on day 11): 125 % of control [2 of 2 alive on day 11]; survivor count (dose: 3.12 mg/kg/injection, schedule: Q01DX010 (sc), vehicle: Klucel (hydroxypropylcellulose) (HPC)): 0 of 3 on day 11; survivor count (dose: 6.25 mg/kg/injection, schedule: Q01DX010 (sc), vehicle: Klucel (hydroxypropylcellulose) (HPC)): 0 of 3 on day 11; survivor count (dose: 12.5 mg/kg/injection, schedule: Q01DX010 (sc), vehicle: Klucel (hydroxypropylcellulose) (HPC)): 0 of 3 on day 11

**Q.** What does the source list for `CSC1SCC2C(=O)N(C)C(C(C)C)C(=O)OCC(NC(=O)c3cnc4ccccc4n3)C(=O)NC(C)C(=O)N(C)C1C(=O)N(C)C(C(C)C)C(=O)OCC(NC(=O)c1cnc3ccccc3n1)C(=O)NC(C)C(=O)N2C` (stereo unspecified)?
**A.** survivor count (dose: 480.0 micrograms/kg/injection, schedule: Q01DX010 (sc), vehicle: saline): 0 of 3 on day 11; survivor count (dose: 480.0 micrograms/kg/injection, schedule: Q01DX010 (sc), vehicle: suspension in saline): 0 of 6 on day 11

**Q.** `O=C(O)/C=C/C(=O)Nc1ccc(Cl)c(Cl)c1` was tested. Which survivor count (dose: 400.0 mg/kg/injection, schedule: Q04DX004 (sc), vehicle: Klucel (hydroxypropylcellulose) (HPC)) did it give?
**A.** 3 of 6 on day 15

**Q.** Which results are given for `C=C1C(=O)C2=CC1CCC(=O)C1(C)CCC(OC(C)=O)C(C)(C)C1CC2O` (stereo unspecified)?
**A.** T/C (dose: 30.0 mg/kg/injection, schedule: Q04DX004 (sc), vehicle: Klucel (hydroxypropylcellulose) (HPC), evaluated on day 15): 139 % of control; survivor count (dose: 240.0 mg/kg/injection, schedule: Q04DX004 (sc), vehicle: Klucel (hydroxypropylcellulose) (HPC)): 0 of 6 on day 15

**Q.** With `Clc1ccc2nnnn2n1` as the compound, how does the survivor count (dose: 400.0 mg/kg/injection, schedule: Q04DX004 (sc), vehicle: saline with Tween-80) read?
**A.** 3 of 6 on day 15

**Q.** And the survivor count (dose: 800.0 mg/kg/injection, schedule: Q04DX004 (sc), vehicle: saline with Tween-80)?
**A.** 1 of 6 on day 15

**Q.** Which survivor count [1] does the source give for `C1CCC2OCCOCCOC3CCCCC3OCCOCCOC2C1` (stereo unspecified) here?
**A.** 0 of 6 on day 15

**Q.** And the survivor count (dose: 300.0 mg/kg/injection, schedule: Q04DX004 (sc), vehicle: Klucel (hydroxypropylcellulose) (HPC))?
**A.** 0 of 6 on day 15

**Q.** With `C(COCCOCC1CO1)OCCOCC1CO1` (stereo unspecified) as the compound, how does the survivor count (dose: 1200.0 mg/kg/injection, schedule: Q04DX004 (sc), vehicle: saline) read?
**A.** 1 of 6 on day 15

**Q.** Which survivor count (dose: 75.0 mg/kg/injection, schedule: Q04DX004 (sc), vehicle: Klucel (hydroxypropylcellulose) (HPC)) does the source give for `COc1c(C=O)c2c(c(OC)c1OC)-c1ccc(OC)c(=O)cc1[C@@H](NC(C)=O)CC2` here?
**A.** 3 of 5 on day 15

**Q.** And the survivor count [1]?
**A.** 0 of 6 on day 15

**Q.** With `CC1=C(C)C(=O)O[C@@H]([C@](C)(O)[C@]2(O)CC[C@@]3(O)[C@@H]4C[C@H]5O[C@]56CC=CC(=O)[C@]6(C)[C@H]4CC[C@]23C)C1` as the compound, how does the T/C (dose: 225.0 mg/kg/injection, schedule: Q04DX004 (sc), vehicle: suspension in saline, evaluated on day 15) read?
**A.** 134 % of control

**Q.** For `CCCCc1ccc(-n2c(C)c(COC(=O)NC)c(COC(=O)NC)c2C)cc1`, which survivor count (dose: 200.0 mg/kg/injection, schedule: Q01DX010 (sc), vehicle: Klucel (hydroxypropylcellulose) (HPC)) is on record?
**A.** 1 of 3 on day 20

**Q.** What about the survivor count (dose: 400.0 mg/kg/injection, schedule: Q01DX010 (sc), vehicle: Klucel (hydroxypropylcellulose) (HPC)) of the same compound?
**A.** 0 of 3 on day 20

**Q.** `CC(C)NC(=O)OCc1c(COC(=O)NC(C)C)c(-c2ccc(Cl)c(Cl)c2)n2c1CCC2` was tested. Which survivor count (dose: 200.0 mg/kg/injection, schedule: Q01DX010 (sc), vehicle: distilled water + Tween-80) did it give?
**A.** 3 of 5 on day 20

**Q.** What about the survivor count (dose: 800.0 mg/kg/injection, schedule: Q01DX010 (sc), vehicle: distilled water + Tween-80) of the same compound?
**A.** 2 of 6 on day 20

**Q.** `COc1cccc2c1C(=O)c1c(O)c3c(c(O)c1C2=O)CC(O)(C(=O)CO)CC3OC1CC(N)C(O)C(C)O1` (stereo unspecified) was tested. Which T/C (dose: 12.0 mg/kg/injection, schedule: Q01DX010 (sc), vehicle: saline, evaluated on day 11) did it give?
**A.** 133 % of control

**Q.** What about the T/C (dose: 24.0 mg/kg/injection, schedule: Q01DX010 (sc), vehicle: saline, evaluated on day 11) of the same compound?
**A.** 140 % of control

**Q.** And the survivor count (dose: 96.0 mg/kg/injection, schedule: Q01DX010 (sc), vehicle: saline)?
**A.** 0 of 3 on day 11

**Q.** How did the survivor count (dose: 300.0 mg/kg/injection, schedule: Q04DX004 (sc), vehicle: saline with Tween-80) turn out when `Clc1cc(Cl)c(C[N+]23CN4CN(CN(C4)C2)C3)cc1Cl` was run?
**A.** 0 of 5 on day 15
